This note sets out measurements from article doi:10.1101/2022.11.10.515958 (bioRxiv, 2022).

Test [1] deals with T1, 4MYC-Whi7 (S. cerevisiae) (UniProt P36167).
T1 sequence: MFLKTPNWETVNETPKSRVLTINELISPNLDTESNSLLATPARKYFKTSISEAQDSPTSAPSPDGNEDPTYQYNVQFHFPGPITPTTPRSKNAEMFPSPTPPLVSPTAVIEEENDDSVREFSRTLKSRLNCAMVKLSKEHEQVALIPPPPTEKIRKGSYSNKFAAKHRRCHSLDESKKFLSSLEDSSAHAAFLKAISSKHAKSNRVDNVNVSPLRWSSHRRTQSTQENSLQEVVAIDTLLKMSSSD
Put plainly: co-IP.

For test [2], the target named is T2, Whi7 (at endogenous protein level, co-immunoprecipitation of Figure 3E) (S. cerevisiae) (UniProt P36167).
T2 sequence: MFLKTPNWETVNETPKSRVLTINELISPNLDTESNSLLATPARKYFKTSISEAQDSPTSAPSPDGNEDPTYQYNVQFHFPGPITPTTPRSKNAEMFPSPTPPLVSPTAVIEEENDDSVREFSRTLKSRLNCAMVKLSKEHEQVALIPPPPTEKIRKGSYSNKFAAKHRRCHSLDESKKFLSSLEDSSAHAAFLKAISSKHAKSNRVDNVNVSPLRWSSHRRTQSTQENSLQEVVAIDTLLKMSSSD
Nature of the test: co-IP.

No constants are given. Whether binding was seen depends on the method and setting. Binding seen in cells or lysates may run through a third protein. Some binding calls cover weakened binding; strength is not graded here. For part of these data: Where a sequence is shown, tags or fusion partners need not be part of it.

B1: Swi6-5FLAG (protein, UniProt P09959 1-803)
chain: MALEEVVRYLGPHNEIPLTLTRDSETGHFLLKHFLPILQQYHDTGNINETNPDSFPTDEERNKLLAHYGIAVNTDDRGELWIELEKCLQLLNMLNLFGLFQDAFEFEEPETDQDEEDPSHSKLPENKTKSENSKDNISSKRINNLQDMSLDSDAHRELGSPLKKLKIDTSVIDAESDSTPNTARGKPNDDINKGPSGDNENNGTDDNDRTAGPIITFTHDLTSDFLSSPLKIMKALPSPVVNDNEQKMKLEAFLQRLLFPEIQEMPTSLNNDSSNRNSEGGSSNQQQQHVSFDSLLQEVNDAFPNTQLNLNIPVDEHGNTPLHWLTSIANLELVKHLVKHGSNRLYGDNMGESCLVKAVKSVNNYDSGTFEALLDYLYPCLILEDSMNRTILHHIIITSGMTGCSAAAKYYLDILMGWIVKKQNRPIQSGTNEKESKPNDKNGERKDSILENLDLKWIIANMLNAQDSNGDTCLNIAARLGNISIVDALLDYGADPFIANKSGLRPVDFGAGTSKLQNTNGGDENSKMVSKGDYDGQKNGKAKKIRSQLLKNPPETTSLINDVQNLLNSISKDYENETVQYNEKLEKLHKELNEQREELANSREQLANVKQLKDEYSLMQEQLTNLKAGIEEEEESFREESKKLGIIADESSGIDWDSSEYDADEPFKVEFLSDFLEDKLQKNYEGDISKLLEAESKEQIMEQIRNQLPAEKIQSMLPPTVLLKARINAYKRNDKHLTNVLDTISTKQSELENKFRRVLSLCLKIDENKVDNMLDGLLQAISSEDPQDIDTDEMQDFLKKHAS
With B1, the binding entry in test [1] was “binds”.

B2: Swi4-5FLAG (protein, UniProt P25302 1-1093)
chain: MPFDVLISNQKDNTNHQNITPISKSVLLAPHSNHPVIEIATYSETDVYECYIRGFETKIVMRRTKDDWINITQVFKIAQFSKTKRTKILEKESNDMQHEKVQGGYGRFQGTWIPLDSAKFLVNKYEIIDPVVNSILTFQFDPNNPPPKRSKNSILRKTSPGTKITSPSSYNKTPRKKNSSSSTSATTTAANKKGKKNASINQPNPSPLQNLVFQTPQQFQVNSSMNIMNNNDNHTTMNFNNDTRHNLINNISNNSNQSTIIQQQKSIHENSFNNNYSATQKPLQFFPIPTNLQNKNVALNNPNNNDSNSYSHNIDNVINSSNNNNNGNNNNLIIVPDGPMQSQQQQQHHHEYLTNNFNHSMMDSITNGNSKKRRKKLNQSNEQQFYNQQEKIQRHFKLMKQPLLWQSFQNPNDHHNEYCDSNGSNNNNNTVASNGSSIEVFSSNENDNSMNMSSRSMTPFSAGNTSSQNKLENKMTDQEYKQTILTILSSERSSDVDQALLATLYPAPKNFNINFEIDDQGHTPLHWATAMANIPLIKMLITLNANALQCNKLGFNCITKSIFYNNCYKENAFDEIISILKICLITPDVNGRLPFHYLIELSVNKSKNPMIIKSYMDSIILSLGQQDYNLLKICLNYQDNIGNTPLHLSALNLNFEVYNRLVYLGASTDILNLDNESPASIMNKFNTPAGGSNSRNNNTKADRKLARNLPQKNYYQQQQQQQQPQNNVKIPKIIKTQHPDKEDSTADVNIAKTDSEVNESQYLHSNQPNSTNMNTIMEDLSNINSFVTSSVIKDIKSTPSKILENSPILYRRRSQSISDEKEKAKDNENQVEKKKDPLNSVKTAMPSLESPSSLLPIQMSPLGKYSKPLSQQINKLNTKVSSLQRIMGEEIKNLDNEVVETESSISNNKKRLITIAHQIEDAFDSVSNKTPINSISDLQSRIKETSSKLNSEKQNFIQSLEKSQALKLATIVQDEESKVDMNTNSSSHPEKQEDEEPIPKSTSETSSPKNTKADAKFSNTVQESYDVNETLRLATELTILQFKRRMTTLKISEAKSKINSSVKLDKYRNLIGITIENIDSKLDDIEKDLRANA
With B2, in test [1], the binding entry is “binds”.

B3: Cks1-ALFA (natural protein, S. cerevisiae, UniProt P20486 1-150, looked up)
chain: MYHHYHAFQGRKLTDQERARVLEFQDSIHYSPRYSDDNYEYRHVMLPKAMLKVIPSDYFNSEVGTLRILTEDEWRGLGITQSLGWEHYECHAPEPHILLFKRPLNYEAELRAATAAAQQQQQQQQQQQQQQQQHQTQSISNDMQVPPQIS
Turning to B3, the binding result in test [2] is listed as “binds”.
